Reference: PubChem BioAssay AID602196 (INSERM, 2012)
Here is an unselected part of about 23,000 deposited reagents. 455 of all reagents (2%) count as active. 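Active includes both protection and sensitisation; some change values fall well beyond the stated -50 to +50 range.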 A number with no mark means an inactive call. Not all columns of the deposit are shown. No sequences are given here. The record does not give: the amount of reagent.

Purpose: 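Genes whose knock-down alters cisplatin killing of lung cancer cells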
Cell system: human A549 lung cancer cells
Reagents: siRNA pair against human genes
Timing: 48 h transfection before cisplatin; time from cisplatin to read-out not stated
Conditions: cisplatin at a dose killing half of control-siRNA cells; exact dose and duration not given
Measured: 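Shift in cisplatin death relative to control siRNA, from -50 (all cells die) to +50 (no cells die); siRNAs harmful on their own scored 0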
Scale: two-siRNA summed score (-2 to +2): higher = both siRNAs protect from cisplatin killing; -2 means both sensitise
Active means: 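Each siRNA scores 0 if harmful alone by LDH or WST-1, otherwise +1 if it reduces and -1 if it increases cisplatin killing; a gene is active when both siRNAs agree (sum +2 or -2)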
Calls: active = both siRNAs shift cisplatin killing the same way; inactive = no consistent shift, or siRNA harmful alone

{"target": "HPD (4-hydroxyphenylpyruvate dioxygenase)", "two-siRNA summed score (-2 to +2)": 0}
{"target": "LCE1B (late cornified envelope 1B)", "two-siRNA summed score (-2 to +2)": 1}
{"target": "C1orf21 (chromosome 1 open reading frame 21)", "two-siRNA summed score (-2 to +2)": 0}
{"target": "TICRR (TOPBP1 interacting checkpoint and replication regulator)", "two-siRNA summed score (-2 to +2)": 0}
{"target": "HISLA (HIF1A stabilizing long noncoding RNA)", "two-siRNA summed score (-2 to +2)": 0}
{"target": "TBXAS1 (thromboxane A synthase 1)", "two-siRNA summed score (-2 to +2)": 0}
{"target": "DEFB126 (defensin beta 126)", "two-siRNA summed score (-2 to +2)": 0}
{"target": "CCDC136 (coiled-coil domain containing 136)", "two-siRNA summed score (-2 to +2)": 1}
{"target": "KRT222 (keratin 222)", "two-siRNA summed score (-2 to +2)": 1}
{"target": "RAB9A (RAB9A, member RAS oncogene family)", "two-siRNA summed score (-2 to +2)": 0}
{"target": "VSIG2 (V-set and immunoglobulin domain containing 2)", "two-siRNA summed score (-2 to +2)": 0}
{"target": "LOC400584", "two-siRNA summed score (-2 to +2)": 0}
